# Results: US12557545B2, “Compound and organic light emitting device comprising the same” (LG Chem, Ltd., priority 2020, dated 2026)
# Experiment: Organic light emitting device evaluation (compound as dopant of light emitting layer)
# Details: OLED; for Driving voltage (V @ 10 mA/cm^2): compound as dopant of light emitting layer (2:98 with Compound D); for EQE (% @ 10 mA/cm^2) / Lifetime (hr) (T90 @ 500 nit): compound as dopant of light emitting layer; for EQE (% @ 10 mA/cm^2): external quantum efficiency; for Lifetime (hr) (T90 @ 500 nit): time for luminance to fall to 90% of initial luminance (500 nit)
SMILES,Driving voltage (V @ 10 mA/cm^2) [V],EQE (% @ 10 mA/cm^2) [%],Lifetime (hr) (T90 @ 500 nit) [h]
Cc1cccc(N(c2ccc3c(c2)c2c4ccc5c(c4ccc2n3-c2ccccc2)c2cc(N(c3ccc(C(C)(C)C)cc3)c3ccc4c(c3)c3c6ccc7c(c6ccc3n4-c3ccccc3)c3cc(N(c4cccc(C)c4)c4cccc6c4oc4ccccc46)ccc3n7-c3ccccc3)ccc2n5-c2ccccc2)c2cccc3c2oc2ccccc23)c1 [Compound 19],4.67,8.56,265
CC(C)(C)c1ccc(N(c2ccc(C(C)(C)C)cc2)c2ccc3c4c5ccc6c(c5ccc4n(-c4ccccc4)c3c2)c2ccc(N(c3ccc4c5c7ccc8c(c7ccc5n(-c5ccccc5)c4c3)c3ccc(N(c4ccc(C(C)(C)C)cc4)c4ccc(C(C)(C)C)cc4)cc3n8-c3ccccc3)c3cccc4c3oc3ccccc34)cc2n6-c2ccccc2)cc1 [Compound 7],4.61,8.77,259
"CC(C)(C)c1ccc(N(c2ccc(C(C)(C)C)cc2)c2ccc3c4c5ccc6c(c5ccc4n(-c4ccccc4)c3c2)c2ccc(N(c3ccc(C(C)(C)C)cc3)c3ccc(C(C)(C)C)cc3)cc2n6-c2ccccc2)cc1 [Compound G, reference compound]",4.68,7.11,67
Cc1cccc(N(c2ccc3c4c5ccc6c(c5ccc4n(-c4ccccc4)c3c2)c2ccc(-c3ccc(-c4ccc5c7c8ccc9c(c8ccc7n(-c7ccccc7)c5c4)c4ccc(N(c5cccc(C)c5)c5cccc7c5oc5ccccc57)cc4n9-c4ccccc4)cc3)cc2n6-c2ccccc2)c2cccc3c2oc2ccccc23)c1 [Compound 14],4.62,8.72,239
c1ccc(N(c2ccccc2)c2ccc3c4c5ccc6c(c5ccc4n(-c4ccccc4)c3c2)c2ccc(N(c3ccc4cc(-c5cc7ccccc7o5)ccc4c3)c3ccc4c5c7ccc8c(c7ccc5n(-c5ccccc5)c4c3)c3ccc(N(c4ccccc4)c4ccccc4)cc3n8-c3ccccc3)cc2n6-c2ccccc2)cc1 [Compound 12],4.67,8.54,275
"Cc1cccc(N(c2ccc3c4c5ccc6c(c5ccc4n(-c4ccccc4)c3c2)c2ccc(N(c3cccc(C)c3)c3cccc4c3oc3ccccc34)cc2n6-c2ccccc2)c2cccc3c2oc2ccccc23)c1 [Compound F, reference compound]",4.70,6.87,58
Cc1cccc(N(c2ccc3c4c5ccc6c(c5ccc4n(-c4ccccc4)c3c2)c2ccc(-c3ccc4c5c7ccc8c(c7ccc5n(-c5ccccc5)c4c3)c3ccc(N(c4cccc(C)c4)c4cccc5c4oc4ccccc45)cc3n8-c3ccccc3)cc2n6-c2ccccc2)c2cccc3c2oc2ccccc23)c1 [Compound 16],4.59,8.76,267
Cc1cccc(N(c2ccc3c4c5ccc6c(c5ccc4n(-c4ccccc4)c3c2)c2ccc(N(c3ccccc3)c3ccc4c5c7ccc8c(c7ccc5n(-c5ccccc5)c4c3)c3ccc(N(c4cccc(C)c4)c4cccc5c4oc4ccccc45)cc3n8-c3ccccc3)cc2n6-c2ccccc2)c2cccc3c2oc2ccccc23)c1 [Compound 4],4.67,8.67,257
CC(C)(C)c1ccc(N(c2ccc(C(C)(C)C)cc2)c2ccc3c4c5ccc6c(c5ccc4n(-c4ccccc4)c3c2)c2ccc(N(c3ccc(C(C)(C)C)cc3)c3ccc4c5c7ccc8c(c7ccc5n(-c5ccccc5)c4c3)c3ccc(N(c4ccc(C(C)(C)C)cc4)c4ccc(C(C)(C)C)cc4)cc3n8-c3ccccc3)cc2n6-c2ccccc2)cc1 [Compound 6],4.58,8.78,264
CC(C)(C)c1ccc(N(c2ccc3c4c5ccc6c(c5ccc4n(-c4ccccc4)c3c2)c2ccc(N(c3ccccc3)c3ccc4cc(-c5cc7ccccc7o5)ccc4c3)cc2n6-c2ccccc2)c2ccc3c4c5ccc6c(c5ccc4n(-c4ccccc4)c3c2)c2ccc(N(c3ccccc3)c3ccc4cc(-c5cc7ccccc7o5)ccc4c3)cc2n6-c2ccccc2)cc1 [Compound 10],4.61,8.76,271
CC(C)(C)c1ccc(N(c2ccc3c4c5ccc6c(c5ccc4n(-c4ccccc4)c3c2)c2ccc(N(c3ccccc3)c3ccc4ccccc4c3)cc2n6-c2ccccc2)c2ccc3c4c5ccc6c(c5ccc4n(-c4ccccc4)c3c2)c2ccc(N(c3ccccc3)c3ccc4ccccc4c3)cc2n6-c2ccccc2)cc1 [Compound 13],4.70,8.68,251
Cc1cccc(N(c2ccc3c4c5ccc6c(c5ccc4n(-c4ccccc4)c3c2)c2ccc(N(c3ccc(C(C)(C)C)cc3)c3ccc4c5c7ccc8c(c7ccc5n(-c5ccccc5)c4c3)c3ccc(N(c4cccc(C)c4)c4cccc5c4oc4ccccc45)cc3n8-c3ccccc3)cc2n6-c2ccccc2)c2cccc3c2oc2ccccc23)c1 [Compound 1],4.63,8.89,250
"c1ccc(N(c2ccc3cc(-c4cc5ccccc5o4)ccc3c2)c2ccc3c4c5ccc6c(c5ccc4n(-c4ccccc4)c3c2)c2ccc(N(c3ccccc3)c3ccc4cc(-c5cc7ccccc7o5)ccc4c3)cc2n6-c2ccccc2)cc1 [Compound I, reference compound]",4.69,6.95,69
Cc1cccc(N(c2cccc3c2oc2ccccc23)c2cccc3c2c2c4ccc5c(c4ccc2n3-c2ccccc2)c2c(N(c3ccc(C(C)(C)C)cc3)c3cccc4c3c3c6ccc7c(c6ccc3n4-c3ccccc3)c3c(N(c4cccc(C)c4)c4cccc6c4oc4ccccc46)cccc3n7-c3ccccc3)cccc2n5-c2ccccc2)c1 [Compound 21],4.62,8.67,258
"c1ccc(-n2c3ccccc3c3cc(-c4ccc(N(c5ccc6ccccc6c5)c5ccc6c7c8ccc9c(c8ccc7n(-c7ccccc7)c6c5)c5ccc(N(c6ccc(-c7ccc8c(c7)c7ccccc7n8-c7ccccc7)cc6)c6ccc7ccccc7c6)cc5n9-c5ccccc5)cc4)ccc32)cc1 [Compound H, reference compound]",4.66,7.11,67
Cc1cccc(N(c2ccc3c4c5ccc6c(c5ccc4n(-c4ccccc4)c3c2)c2ccc(N(c3ccc4c5c7ccc8c(c7ccc5n(-c5ccccc5)c4c3)c3ccc(N(c4cccc(C)c4)c4cccc5c4oc4ccccc45)cc3n8-c3ccccc3)c3cccc4c3oc3ccccc34)cc2n6-c2ccccc2)c2cccc3c2oc2ccccc23)c1 [Compound 3],4.65,8.78,268
Cc1cccc(N(c2ccc3c4c5ccc6c(c5ccc4n(-c4ccccc4)c3c2)c2ccc(N(c3ccc(-c4cc5ccccc5o4)cc3)c3ccc4c5c7ccc8c(c7ccc5n(-c5ccccc5)c4c3)c3ccc(N(c4cccc(C)c4)c4cccc5c4oc4ccccc45)cc3n8-c3ccccc3)cc2n6-c2ccccc2)c2cccc3c2oc2ccccc23)c1 [Compound 5],4.62,8.74,265
Cc1cccc(N(c2ccc3c4c5ccc6c(c5ccc4n(-c4ccccc4)c3c2)c2ccc(N(c3cccc(C)c3)c3cccc4c3oc3ccccc34)cc2n6-c2ccccc2)c2ccc3c4c5ccc6c(c5ccc4n(-c4ccccc4)c3c2)c2ccc(N(c3cccc(C)c3)c3cccc4c3oc3ccccc34)cc2n6-c2ccccc2)c1 [Compound 2],4.61,8.61,239
CC(C)(C)c1ccc(N(c2ccc(C(C)(C)C)cc2)c2ccc3c4c5ccc6c(c5ccc4n(-c4ccccc4)c3c2)c2ccc(N(c3ccc(-c4cc5ccccc5o4)cc3)c3ccc4c5c7ccc8c(c7ccc5n(-c5ccccc5)c4c3)c3ccc(N(c4ccc(C(C)(C)C)cc4)c4ccc(C(C)(C)C)cc4)cc3n8-c3ccccc3)cc2n6-c2ccccc2)cc1 [Compound 8],4.67,8.69,235
CC(C)(C)c1ccc(N(c2ccc3c4c5ccc6c(c5ccc4n(-c4ccccc4)c3c2)c2ccc(N(c3ccccc3)c3ccccc3)cc2n6-c2ccccc2)c2ccc3c4c5ccc6c(c5ccc4n(-c4ccccc4)c3c2)c2ccc(N(c3ccccc3)c3ccccc3)cc2n6-c2ccccc2)cc1 [Compound 11],4.66,8.79,267
CC(C)(C)c1ccc(N(c2ccc3c4c5ccc6c(c5ccc4n(-c4ccccc4)c3c2)c2ccc(N(c3ccc(-c4ccc5c(c4)c4ccccc4n5-c4ccccc4)cc3)c3ccc4ccccc4c3)cc2n6-c2ccccc2)c2ccc3c4c5ccc6c(c5ccc4n(-c4ccccc4)c3c2)c2ccc(N(c3ccc(-c4ccc5c(c4)c4ccccc4n5-c4ccccc4)cc3)c3ccc4ccccc4c3)cc2n6-c2ccccc2)cc1 [Compound 9],4.59,8.73,265
Cc1cccc(N(c2ccc3c4c5ccc6c(c5ccc4n(-c4ccccc4)c3c2)c2ccc(Oc3ccc4c5c7ccc8c(c7ccc5n(-c5ccccc5)c4c3)c3ccc(N(c4cccc(C)c4)c4cccc5c4oc4ccccc45)cc3n8-c3ccccc3)cc2n6-c2ccccc2)c2cccc3c2oc2ccccc23)c1 [Compound 17],4.64,8.77,253
Cc1cccc(N(c2ccc3c4c5ccc6c(c5ccc4n(-c4ccccc4)c3c2)c2ccc(-c3cccc(-c4ccc5c7c8ccc9c(c8ccc7n(-c7ccccc7)c5c4)c4ccc(N(c5cccc(C)c5)c5cccc7c5oc5ccccc57)cc4n9-c4ccccc4)c3)cc2n6-c2ccccc2)c2cccc3c2oc2ccccc23)c1 [Compound 15],4.68,8.69,254
